From ChEMBL document CHEMBL3988442, “University of Dundee, Small-Polar-MMV Screening Library” (2021).

Results are given as percent effect. The controls that fix the scale are not given in the record; negative values are as filed. The compounds are a random part of those screened. Two or more numbers in one place are separate tests of the same structure; such repeats can differ widely.

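Viability assay of Plasmodium falciparum sporozoites; the read-out is not stated. The concentration is filed as 10 mM, unlikely as a test dose, so the dose is not known. Direction is inferred from retests: higher values go with lower viability. Strong results were mostly tested again. Of about 34,000 compounds tested this way, about 280 (0.84%) reached 50% or more in at least one test.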

Result for CCCNC(=O)CCOc1cccc(F)c1 was -9.925%.
Result for Cc1cc(CN(C)C(=O)NC2CCN(C3CC3)CC2)no1 was 9.801%.
Result for Cc1ccc(-c2nc(CN3CCN(CCO)CC3)co2)cc1 was 32.51% and -0.3069% and 16.33%.
Result for O=C(CCc1cccs1)N1CCCC1c1noc(C2CC2)n1 (stereo not drawn) was -12.47%.
Result for c1cnc(N2CCC(OCC3CCCCO3)CC2)nc1 (stereo not drawn) was -5.104%.
Result for CCOc1ncccc1NC(=O)N1CCN(Cc2ccncc2)CC1 was -0.2681%.
Result for COCCn1c2c(ccc1=O)CCN(C(=O)Cc1cccs1)CC2 was 6.25%.
Result for COc1cc(CNCc2ccnc(N3CCCC3)c2)cc(OC)c1.Cl was 0.03256%.
Result for O=C(O)C(F)(F)F.O=C(O)C(F)(F)F.[H][C@@]12CCN(Cc3ccoc3)[C@]1([H])CC[C@@H](C(=O)NCCc1ccccn1)O2 was 3.947%.
Result for O=C(COCc1nc(-c2ccncc2)no1)NC1CCCCC1 was -6.543%.
Result for COCC(c1cccc(C(F)(F)F)c1)N(C)C(=O)c1ccccn1 (stereo not drawn) was 12.15%.
Result for CSc1nccc(N2CCC3(CCCN(CCc4ccccc4)C3)C2)n1 (stereo not drawn) was 3.374%.
Result for [H][C@@]12CN(Cc3cccc(F)c3)C[C@]1([H])N(CCCN1CCOCC1)C(=O)O2 was 7.082%.
Result for COc1cccc(CC(=O)N2CCC3(CC2)OCCCC3O)c1OC (stereo not drawn) was -107.7% and -95.39%.
Result for CC(C)n1cc(CN2CCCN(C(=O)c3cc(Cl)c[nH]3)CC2)cn1 was -8.8%.
Result for CC(C)C(=O)NS(=O)(=O)c1ccc(C#N)cc1C(F)(F)F was 9.702%.
Result for Cc1cnn(CC2CCCN2C(=O)c2cc3ccccc3[nH]c2=O)c1 (stereo not drawn) was -9.249%.
Result for CN(C)CCCNC(=O)c1ccccc1NC(=O)c1cc(Cl)ccc1Cl was -4.487%.
Result for O=C(Nc1ccc2ncccc2c1)C1CC(=O)N(Cc2ccccn2)C1 (stereo not drawn) was 3.727%.
Result for Cc1nc(CC(=O)N2CCN(Cc3ccc(C#N)cc3)CC2)cs1 was 0.9585%.
Result for O=C(O)C(F)(F)F.O=C(O)C(F)(F)F.[H][C@]12CCN(Cc3cccs3)[C@@]1([H])CC[C@H](COCc1ccccn1)O2 was -1.128%.
Result for Cc1ccc(N2CCc3sc(C(=O)N4CCOCC4)cc32)nn1 was 5%.
Result for O=C(c1cnns1)N1CCN(Cc2ccc(F)cc2Cl)CC1 was -3.908%.
Result for Cc1cc(NC(=O)CN(C)CC2CCCN2c2cccnn2)n(C)n1 (stereo not drawn) was -3.403%.
Result for COc1cc(S(=O)(=O)N2CCc3cc(Br)ccc32)cc(C(=O)O)c1OC was 0.5915%.
Result for COc1cccc(OC)c1C(=O)NCC(c1cccn1C)N1CCCC1 (stereo not drawn) was -1.871% and 21.58% and -5.41%.
Result for Cc1ccc(-c2nnc(CN3CCCCC3Cn3cncn3)o2)cc1 (stereo not drawn) was -4.125%.
Result for COC(=O)C1CCN(CC2(c3ccc(C)cn3)CCNCC2)CC1 was -4.741%.
Result for O=C(O)C(F)(F)F.[H][C@@]12COC[C@]1(COC)CN(Cc1cc(OC)cc(OC)c1)C2 was -8%.
Result for O=C(NCc1csc(Br)c1)c1ccc(=O)[nH]n1 was -15.75%.
Result for Cc1cnn(CC2CCCN2CC(=O)Nc2cc(C)no2)c1 (stereo not drawn) was -8.98%.
Result for CC(C)(C(=O)NCC1CC1)c1ccccc1F was 3.807%.
Result for COCC(=O)NCc1cc(=O)n2c(n1)CN(Cc1ccsc1)CCC2 was 7.543%.
Result for Cc1cccc(OCCCN2CCC(N(C)Cc3noc(C)n3)C2)c1 (stereo not drawn) was 8.845%.
Result for CC(C(=O)NCc1ccc(N2CCNC(=O)C2)cc1)c1cccs1 (stereo not drawn) was 8.393%.
Result for Nc1cc(CCCNC(=O)NC2CC2)nn1-c1ccccc1 was -11.69%.
Result for CC1=C(C#N)C(=O)NC(=O)/C1=C\c1c(C)nn(-c2ccccc2)c1O was 2.775%.
Result for CCc1nc(C2CCCN2Cc2nnc(C3CC3)o2)no1 (stereo not drawn) was 0.6256%.
Result for COCC(=O)NC(C)Cc1ccc(Br)cc1 (stereo not drawn) was 4.27%.
Result for Cc1nccn1C1CCCN(C(=O)C2=NN(C)C(=O)CC2)C1 (stereo not drawn) was -0.32%.
Result for CC(O)CNC(=O)NCc1cccnc1OC1CCCC1 (stereo not drawn) was -6.618%.

The first 3 entries again:

{"smiles": "CCCNC(=O)CCOc1cccc(F)c1", "Percent Effect": -9.925}
{"smiles": "Cc1cc(CN(C)C(=O)NC2CCN(C3CC3)CC2)no1", "Percent Effect": 9.801}
{"smiles": "Cc1ccc(-c2nc(CN3CCN(CCO)CC3)co2)cc1", "Percent Effect": "32.51 and -0.3069 and 16.33"}